{"sequences": {"note": "Chains of the proteins cited; added tags and fusions are not shown.", "UniProt Q9UL03": "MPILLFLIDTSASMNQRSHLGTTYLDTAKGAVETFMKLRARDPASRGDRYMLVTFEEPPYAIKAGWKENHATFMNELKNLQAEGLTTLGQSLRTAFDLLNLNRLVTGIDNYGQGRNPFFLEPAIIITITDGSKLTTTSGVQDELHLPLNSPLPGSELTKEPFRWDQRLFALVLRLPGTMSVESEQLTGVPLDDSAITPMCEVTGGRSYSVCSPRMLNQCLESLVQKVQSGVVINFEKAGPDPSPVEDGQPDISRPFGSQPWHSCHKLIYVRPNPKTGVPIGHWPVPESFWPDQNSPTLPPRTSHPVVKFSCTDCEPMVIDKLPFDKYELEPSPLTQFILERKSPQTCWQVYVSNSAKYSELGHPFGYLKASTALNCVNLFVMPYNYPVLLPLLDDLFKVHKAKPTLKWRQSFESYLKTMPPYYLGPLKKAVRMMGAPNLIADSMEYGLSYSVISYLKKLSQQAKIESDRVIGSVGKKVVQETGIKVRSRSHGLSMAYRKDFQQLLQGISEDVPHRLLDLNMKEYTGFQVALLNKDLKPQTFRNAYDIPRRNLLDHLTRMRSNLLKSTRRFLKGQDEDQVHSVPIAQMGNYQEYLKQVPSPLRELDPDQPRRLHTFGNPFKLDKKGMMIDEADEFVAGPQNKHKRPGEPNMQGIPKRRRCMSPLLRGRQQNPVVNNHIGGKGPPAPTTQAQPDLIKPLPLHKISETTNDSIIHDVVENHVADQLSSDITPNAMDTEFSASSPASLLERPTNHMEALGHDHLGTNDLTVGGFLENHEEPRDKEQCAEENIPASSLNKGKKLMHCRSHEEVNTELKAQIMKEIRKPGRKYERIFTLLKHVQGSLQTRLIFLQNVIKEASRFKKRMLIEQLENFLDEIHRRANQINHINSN", "UniProt Q96AH0": "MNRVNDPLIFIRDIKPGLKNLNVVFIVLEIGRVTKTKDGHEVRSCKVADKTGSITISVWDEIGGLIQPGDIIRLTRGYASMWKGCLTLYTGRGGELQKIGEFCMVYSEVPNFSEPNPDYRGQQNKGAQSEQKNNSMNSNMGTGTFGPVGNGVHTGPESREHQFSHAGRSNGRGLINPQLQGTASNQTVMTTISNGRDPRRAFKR", "UniProt Q9BQ15": "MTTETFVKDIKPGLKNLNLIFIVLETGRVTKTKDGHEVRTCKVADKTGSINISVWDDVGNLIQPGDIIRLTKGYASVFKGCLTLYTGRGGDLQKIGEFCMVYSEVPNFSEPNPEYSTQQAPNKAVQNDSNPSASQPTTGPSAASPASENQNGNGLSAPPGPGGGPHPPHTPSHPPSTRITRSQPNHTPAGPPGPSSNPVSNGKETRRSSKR", "UniProt Q7Z333": "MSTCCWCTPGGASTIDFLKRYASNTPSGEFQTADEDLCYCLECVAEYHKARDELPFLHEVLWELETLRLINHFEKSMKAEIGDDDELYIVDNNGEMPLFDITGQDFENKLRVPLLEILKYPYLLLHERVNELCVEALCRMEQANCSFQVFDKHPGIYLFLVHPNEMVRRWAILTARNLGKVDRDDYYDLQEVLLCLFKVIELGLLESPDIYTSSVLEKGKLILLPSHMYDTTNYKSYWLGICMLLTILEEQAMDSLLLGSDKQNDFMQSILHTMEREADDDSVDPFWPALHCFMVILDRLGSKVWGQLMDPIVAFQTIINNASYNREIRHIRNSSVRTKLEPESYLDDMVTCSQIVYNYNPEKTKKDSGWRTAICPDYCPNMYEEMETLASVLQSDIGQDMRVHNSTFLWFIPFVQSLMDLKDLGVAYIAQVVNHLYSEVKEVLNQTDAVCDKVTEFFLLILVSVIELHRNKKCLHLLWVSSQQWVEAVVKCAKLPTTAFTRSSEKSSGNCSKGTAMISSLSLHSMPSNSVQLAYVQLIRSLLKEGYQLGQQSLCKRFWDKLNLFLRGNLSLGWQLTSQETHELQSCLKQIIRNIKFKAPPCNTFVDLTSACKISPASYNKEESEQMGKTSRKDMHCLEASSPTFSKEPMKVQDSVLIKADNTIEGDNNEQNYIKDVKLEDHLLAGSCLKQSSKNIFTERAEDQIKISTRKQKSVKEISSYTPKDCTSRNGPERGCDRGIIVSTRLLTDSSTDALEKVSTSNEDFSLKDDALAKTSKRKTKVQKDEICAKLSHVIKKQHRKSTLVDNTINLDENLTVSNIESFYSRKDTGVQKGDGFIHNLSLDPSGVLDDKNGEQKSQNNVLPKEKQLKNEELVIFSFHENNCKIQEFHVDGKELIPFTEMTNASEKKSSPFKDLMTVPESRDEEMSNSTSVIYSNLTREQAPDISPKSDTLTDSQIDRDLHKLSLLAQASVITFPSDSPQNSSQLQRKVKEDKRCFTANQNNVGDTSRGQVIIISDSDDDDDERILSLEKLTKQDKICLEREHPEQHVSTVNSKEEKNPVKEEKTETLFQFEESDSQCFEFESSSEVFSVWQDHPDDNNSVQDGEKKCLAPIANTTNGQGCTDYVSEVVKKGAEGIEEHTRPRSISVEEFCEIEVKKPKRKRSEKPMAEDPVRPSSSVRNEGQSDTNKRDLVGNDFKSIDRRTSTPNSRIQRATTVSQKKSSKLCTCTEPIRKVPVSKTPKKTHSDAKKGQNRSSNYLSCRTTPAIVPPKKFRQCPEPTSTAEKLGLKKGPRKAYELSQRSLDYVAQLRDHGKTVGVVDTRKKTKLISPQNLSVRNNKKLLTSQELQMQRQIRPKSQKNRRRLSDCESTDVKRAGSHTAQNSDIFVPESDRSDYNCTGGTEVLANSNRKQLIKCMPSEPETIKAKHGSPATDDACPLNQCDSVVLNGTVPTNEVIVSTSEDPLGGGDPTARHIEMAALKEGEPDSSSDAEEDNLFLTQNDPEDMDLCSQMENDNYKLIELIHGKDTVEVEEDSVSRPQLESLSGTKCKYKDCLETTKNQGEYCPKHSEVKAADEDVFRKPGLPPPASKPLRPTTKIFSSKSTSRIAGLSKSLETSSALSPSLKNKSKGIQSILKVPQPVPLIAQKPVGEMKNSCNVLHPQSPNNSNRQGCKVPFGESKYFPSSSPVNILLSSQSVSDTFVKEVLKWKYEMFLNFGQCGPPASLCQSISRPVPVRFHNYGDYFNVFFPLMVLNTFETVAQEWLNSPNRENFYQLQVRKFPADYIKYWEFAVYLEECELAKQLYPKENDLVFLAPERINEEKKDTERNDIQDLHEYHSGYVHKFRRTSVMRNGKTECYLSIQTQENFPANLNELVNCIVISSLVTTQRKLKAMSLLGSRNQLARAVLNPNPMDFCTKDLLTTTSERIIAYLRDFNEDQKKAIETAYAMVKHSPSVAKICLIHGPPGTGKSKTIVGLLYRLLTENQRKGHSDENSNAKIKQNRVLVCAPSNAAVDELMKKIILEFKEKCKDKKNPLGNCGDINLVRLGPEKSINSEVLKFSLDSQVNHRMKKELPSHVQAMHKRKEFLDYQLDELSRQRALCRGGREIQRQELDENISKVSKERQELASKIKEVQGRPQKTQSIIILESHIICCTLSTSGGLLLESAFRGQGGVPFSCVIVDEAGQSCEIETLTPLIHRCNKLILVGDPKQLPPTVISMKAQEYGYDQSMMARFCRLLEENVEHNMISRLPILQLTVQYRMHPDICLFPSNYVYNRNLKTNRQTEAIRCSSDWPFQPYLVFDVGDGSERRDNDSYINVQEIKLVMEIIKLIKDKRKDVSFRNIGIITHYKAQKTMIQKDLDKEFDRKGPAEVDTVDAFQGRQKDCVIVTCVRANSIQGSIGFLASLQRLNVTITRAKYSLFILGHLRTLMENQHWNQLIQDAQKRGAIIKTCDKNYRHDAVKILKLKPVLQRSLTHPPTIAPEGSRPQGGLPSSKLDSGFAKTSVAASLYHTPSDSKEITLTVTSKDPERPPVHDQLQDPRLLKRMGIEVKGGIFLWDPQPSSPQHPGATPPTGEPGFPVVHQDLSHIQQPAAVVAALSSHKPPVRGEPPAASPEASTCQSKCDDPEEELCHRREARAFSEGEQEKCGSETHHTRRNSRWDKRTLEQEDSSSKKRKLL"}, "source": "paper PMC11602137", "note": "Results are given in words; binding and its absence hold for the method and conditions named. Binding seen in cells or lysates may run through a third protein. Here binding means that the protein was enriched with, or labelled near, the bait; the list need not be complete."}
{"biological_target": "FLAG-tagged INTS6 (FLAG-INTS6) (UniProt Q9UL03)", "test": "affinity purification with mass spectrometry; anti-FLAG M2 affinity gel from nuclear lysate (0.42 M NaCl extract) of HEK293 cells stably expressing FLAG-INTS6 or mock, washes with 0.5 M KCl and 100 mM KCl, FLAG-peptide elution, mass spectrometry"}
{"substance": "NABP1 (hSSB2) (from UniProt Q96AH0 1-204)", "binding": "binds"}
{"substance": "hSSB1 (NABP2) (from UniProt Q9BQ15 1-211)", "binding": "binds"}
{"substance": "senataxin (SETX) (from UniProt Q7Z333 1-2677)", "binding": "binds"}
